{
  "source": "paper doi:10.1101/2024.04.01.587525",
  "binders": {"B1": {"name": "Jumonji27 (JMJ27)-GFP fusion protein (protein, UniProt Q8VYB9 1-840)", "chain": "MEKMRGKRIRPRDSGELVEDGRSESERKTRKKENDVVSKGRIGRGRGRGEVSKRSIEIDISNPEKDIKPDGSRKCLGSTCHHCKILTSESDLIFCSKCNKKCYCFDCIKRSYSERTHEEVRAACPFCMMTCICRACLRLPLVIKPPSEKDTDVKLKQLQYLLVKVLPVLKDIYTEQNRELEIESTIRGHPVTEANIKRCKLDPSERIYCDLCRTSIANFHRSCPNKNCSVDICLSCCKELSEGFHQERDGKKNAEGKGYECRIPAGQGKDSDAYVPLHFSTWKLNSDSSIPCPPKECGGCGTSTLELRRLWKRDWVEKLITNAEKCTLNFRPTDVDIVHECSSCSTNSDSIRRQAAFRKNAHDNFLYSPNAVDLAEDDIAHFQFHWMKAEPVIVRNVLEKTSGLSWEPMVMWRACREMDPKRKGTEEETTKVKALDCLDWCEVEINLHQFFEGYLEGRMHKNGWPEMLKLKDWPPSDLFEKRLPRHNAEFIAALPFFDYTDPKSGILNLATRFPEGSLKPDLGPKTYIAYGFHEELNRGDSVTKLHCDISDAVNVLTHTAKVEIPPVKYQNIKVHQKKYAEAMLQKQQYSGQVKEASELENKSMKEVDESKKDLKDKAANEEQSNNSSRPSGSGEAEKVIISKEDNPTQPAVSTSVESIQEQKLDAPKETDGNTNERSKAVHGGAVWDIFRREDVPKLIQFLKRHEHEFRHFNNEPLESVIHPIHDQTMFLSDSQKKQLKEEFDIEPWTFEQHLGEAVFIPAGCPHQVRNRQSCIKVALDFVAPESVEECLRLTQEFRRLPKDHSSSEDKLELKKIALYAASSAIREVKGLMQSSRRSDT"}},
  "target": "T1, DNA Damage Binding protein 2 (DDB2)-FLAG fusion protein (Arabidopsis thaliana) (UniProt Q6NQ88)",
  "T1 sequence": "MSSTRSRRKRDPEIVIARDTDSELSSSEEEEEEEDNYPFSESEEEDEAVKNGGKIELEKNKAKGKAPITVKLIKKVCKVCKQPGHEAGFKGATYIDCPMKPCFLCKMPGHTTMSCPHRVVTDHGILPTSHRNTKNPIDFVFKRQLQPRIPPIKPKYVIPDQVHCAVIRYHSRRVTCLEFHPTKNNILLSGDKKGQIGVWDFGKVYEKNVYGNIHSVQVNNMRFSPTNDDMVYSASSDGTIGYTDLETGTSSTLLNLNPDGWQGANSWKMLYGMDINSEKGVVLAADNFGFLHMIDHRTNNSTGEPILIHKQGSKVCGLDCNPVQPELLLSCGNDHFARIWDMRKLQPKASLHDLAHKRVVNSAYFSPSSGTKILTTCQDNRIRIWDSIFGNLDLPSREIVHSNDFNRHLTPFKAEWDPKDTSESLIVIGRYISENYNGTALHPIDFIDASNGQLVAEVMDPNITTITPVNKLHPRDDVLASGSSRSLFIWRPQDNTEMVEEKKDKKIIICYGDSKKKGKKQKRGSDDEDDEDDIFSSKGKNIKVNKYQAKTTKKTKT",
  "assay": "co-IP",
  "note": "These are yes or no findings as the source states them, for the method shown. Binding seen in cells or lysates may run through a third protein. Some entries that bind do so weakly or less than the wild type. Where a sequence is shown, tags or fusion partners need not be part of it.",
  "data": [
    {"binder": "B1", "values": [
      {"measurement": "binding", "result": "binds"}
    ]}
  ]
}
